Out of some 52,000 sequences screened, about 210 (0.4%) were called active.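 How the source made its calls: active means gene whose silencing raises cell survival under the drug, median off-target-corrected z-score across its silencing RNAs 2 or more; inactive means the rest.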 The list shows a part of the results.
Assay: Resistance to Poly (ADP-Ribose) Polymerase inhibitor: Gene Identification via Genome-wide siRNA Screen
Details: mouse BRCA2 R2336H ES cells, olaparib, CellTiter-Glo viability; stronger effect = higher value
Summary of the method: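 Mouse BRCA2 R2336H ES cells were reverse-transfected with siRNA (20 nM final), treated at 48 h with 500 nM olaparib, and read by CellTiter-Glo after 72 h. Scores: MAD-based z per siRNA, median per gene, seed off-target correction.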
In the case of GCUGAAAAUUCCUUCCCGATT against Laf4l, the z-score is reported as inactive: 0.29. In the case of GCUACUAUGUGCCUGUGACTT against Oc90, the z-score is reported as inactive: -1.84. In the case of GGUUCUUUUGCCUUCAGUGTT against Slc7a10, the z-score is reported as inactive: -0.409. With GUUCUGCUUUUUGUCAUAUTT against Olfr1431 the z-score was inactive: -0.586. With GGCAAGUUAAAAAUGGUAGTT against Tjp1 the z-score was inactive: 0.125. For GGACUGGUUUUUUUUUUGUTT against St5, the z-score was inactive: 0.803. In the case of GGAAUAAUAUGCAUGUAGATT against Rab21, the z-score is reported as inactive: 1.22. For GGAGUAGUGAAGAUUCGGATT against Fdft1, the z-score was inactive: 0.324. For “GGCCUGAAGACAGACAUGATT against C030016D13Rik”, the z-score was inactive: -0.808. With GGCUAUUUUUUAGCAAAGATT against Wasl the z-score was inactive: 0.0356. In the case of GGGCUGAGUUAGAUUAAAATT against Cds1, the z-score is reported as inactive: 0.138. In the case of “GGAAGUGGUUGCUUAGGCATT against 1700041G16Rik”, the z-score is reported as inactive: -0.595. In the case of GCUGUAUGGGAAGGGUUACTT against AU067695, the z-score is reported as inactive: -2.22. For “GGAAGAUGAAAGUUCCAUATT against 4932422E22Rik”, the z-score was inactive: 0.29. In the case of GUACACUCAAUCACUCUUGTT against MGC59529, the z-score is reported as inactive: 0.611. In the case of GCUUUAAUGCCAGUUUGGGTT against Olfr1391, the z-score is reported as inactive: -0.381. For “CGGGAUUUGAAAGACUCAGTT against A530032D15Rik”, the z-score was inactive: 0.268. In the case of CGAUGGUACACUCAAUGAUTT against Hk2, the z-score is reported as inactive: 0.452. For GGUUGCUUGGAAUUAAAAGTT against Klhl1, the z-score was active: 1.01. In the case of GGCCAAGAAAAUGAUUGCATT against Gpr19, the z-score is reported as inactive: -1.4. For GGAUGAACUCAUGAGAGCCTT against Ncb5or, the z-score was inactive: 0.069. With GCCAGGCAACGAAACUCAGTT against Leng1 the z-score was inactive: -0.671. With GGACAAUCUCUUCAGGAGUTT against Gzme the z-score was inactive: 0.706. In the case of GGACAAGCAGUCCACUUGGTT against Ski, the z-score is reported as inactive: -0.218. With CGAGUUGAUUAAAGAUUGUTT against E2f6 the z-score was inactive: 0.528. In the case of CCAGGCAUGGAAAUCAACUTT against Ramp3, the z-score is reported as inactive: -0.0663. In the case of GCGAGAGCUAAAGUAAAAUTT against Egln1, the z-score is reported as inactive: -0.0385. For “GGCUGGCAAACUCAAAAAATT against A930006D11”, the z-score was inactive: 0.605. For CCUCUUGGUUAAAUAAUGUTT against Rnf103, the z-score was inactive: 0.183. With GGUCUUUUUGGUCUUAUUUTT against Olfr293 the z-score was inactive: -0.285. In the case of GCCAACCUCUUAAACACUATT against Trpm5, the z-score is reported as inactive: -0.402. For “GGAAAGUGACUGCAUGUUCTT against 1700012G19Rik”, the z-score was inactive: 1.09. For GCUUCCUCUACAUCCUGCUTT against Kcnk15, the z-score was active: 2.57. For CCAGGAAUCUAGAUAAUAGTT against BC031181, the z-score was inactive: -0.36. In the case of “GGAAAAGCUGAAGGAAAAUTT against 1110007A13Rik”, the z-score is reported as inactive: -3.08. With GGAAUACAAUGUCUCCAUCTT against Il3ra the z-score was inactive: -0.00788. For GGAACAGAAAGAAAAAGACTT against Plcd4, the z-score was inactive: 1.55. In the case of CGUGUUUGUAGAUAAACCATT against Kcnh8, the z-score is reported as inactive: -1.39. In the case of GAUGCAAAGUUUCUUCUUCTT against Olfr745, the z-score is reported as inactive: 0.682. With GGACUCAGAAGAAAUGGACTT against Osbpl6 the z-score was inactive: 1.31. With GCUACACCCGCAUGACAAATT against Trit1 the z-score was inactive: -0.139. In the case of “GGAAAAGACAAGAAAAGAUTT against 2610312B22Rik”, the z-score is reported as inactive: 3.1. In the case of GGACUACGAAGAAAUCACUTT against Aicda, the z-score is reported as inactive: 0.289. For AAUUGAAGACUGUAAAUACTT against Sst, the z-score was inactive: -0.109. For GCCACUUGUGCUAAGCUGUTT against Ager, the z-score was inactive: 0.539. In the case of GGAAAGAAGAAGAAAUGACTT against Srp19, the z-score is reported as inactive: 0.284. With GGUUUCAAGCUCUAAAGCUTT against Ccr1 the z-score was inactive: 1.47. In the case of CCGAUGGCUUCAUGAUUCATT against Gulo, the z-score is reported as inactive: -0.627. In the case of GGACGACUUAAAGCUCUUUTT against Olfr1220, the z-score is reported as inactive: -0.73. With GGCCAGACCUUUGUGAAUGTT against Ctse the z-score was inactive: -1.08. In the case of GGAAAAGUACAAAAGUCAGTT against Kcne2, the z-score is reported as inactive: 0.973. With GGAAUGCAAGGAAAUGAAATT against Obp1a the z-score was inactive: -0.237. With CCAAACAGUUGGAACUGUGTT against Rusc1 the z-score was inactive: 0.437. In the case of “GCUACAACCUUGAGAAACUTT against 9030623N16Rik”, the z-score is reported as inactive: 1.1. For GGAGACGUAUACAAAUGUCTT against Itga11, the z-score was inactive: -0.543. In the case of “GGCUGGACAGGAUUAUCCATT against 2500001K11Rik”, the z-score is reported as inactive: 0.133. For GGCCUUUUCUUCUUUUUGUTT against Mill1, the z-score was inactive: -0.547. For GCAUGAGGCUAAAUUGAAATT against Phldb2, the z-score was inactive: -0.153. For GCGGCUAAUCGCCAAGAGATT against Arhgap9, the z-score was inactive: -1.14. For CCUUACUGGGCAACUUGCUTT against Olfr1199, the z-score was inactive: 1.81. With GGUAUAUGGACUGGUGGAUTT against Hrh2 the z-score was inactive: 0.626. For GGACAAUCGGAACCUGUUUTT against Cacna2d2, the z-score was inactive: -2.21. With GCGGUCUGUAUUCUUCUAGTT against Pdia6 the z-score was inactive: -0.694. In the case of GCUGAAUCUAGCUUCUCAUTT against Mad1l1, the z-score is reported as inactive: -0.127. With CCAUUAGUCAGAGAAUUGUTT against Tomm20 the z-score was inactive: 0.0699. For GCCCGGCGAUCUGAAUGUATT against Fchsd2, the z-score was inactive: -2.3. For GCCUCAGUCCGAUAAAGAGTT against Emcn, the z-score was inactive: 0.734. With GCCAGCUUCCGUGUUUGUUTT against Nfkb1 the z-score was inactive: -1.7. With GGACCUGAAGAAGCAUGGUTT against Mb the z-score was inactive: 3.06. In the case of “CGAGUUUCAUCGAACGUGUTT against 4732452J19Rik”, the z-score is reported as inactive: 0.0041. With GGUGUCUGACUUUAAGAAGTT against BC024806 the z-score was inactive: 0.429. For GCUACGAACUAAUUGAAAATT against Atp8a1, the z-score was inactive: 0.84. In the case of GGUACCAUAUCUGUGAACATT against Nrxn3, the z-score is reported as inactive: -1.08. For GCCCACUUCCGAAUCAAUATT against Mrpl52, the z-score was inactive: -0.895. For CCUAUGCUAUAGCAGUCUCTT against Oaz1, the z-score was inactive: 0.751. For GGGCAGGGAUGUUUAGAUCTT against Homer2, the z-score was inactive: 0.256. For CCAUAUUGGCAAUCUCUAGTT against AY238603, the z-score was inactive: 0.966. In the case of GGGCAUUUGGCCUUUCUCATT against Cpsf4, the z-score is reported as inactive: 0.743. For GGCCGGUGCCUUUUAUUCUTT against Spib, the z-score was inactive: 0.804. In the case of GGAUAACCAUUCAGUAUUATT against Polq, the z-score is reported as inactive: -0.0209. With “GGAAGAUUUUCUCCAUCUATT against 1700019P01Rik” the z-score was inactive: 0.578. In the case of AUAACCCAGUUCAUCCUCCTT against Olfr1431, the z-score is reported as inactive: -0.826. With GGAAAAGCAACCAUGUUCUTT against Spon1 the z-score was inactive: -0.0441. With “GGAAACAGGUCUGUCCCAATT against 8430438L13Rik” the z-score was inactive: -0.879. With “GGUCACCUUUGCACAGUACTT against A930016P21Rik” the z-score was inactive: -1.1. With “GGGUUUAAAAUCUGUAGAUTT against 2700050L05Rik” the z-score was inactive: 1.08. With GCAAGAUCCCGACACAUACTT against Tead4 the z-score was inactive: -1.77. With “GCUCAUCCAGAUAAACCCATT against 1200011M11Rik” the z-score was inactive: -0.122. With GCGGUUGUGGUACUUAAGCTT against Txnl6 the z-score was inactive: 0.0668. For GGAAGCAGGAUCAGUUCGATT against AI481500, the z-score was inactive: -1.9. In the case of GGAUGGACCUGACUUUCAATT against Txn2, the z-score is reported as inactive: -1.79. With GCCUGGAUACAAUUACCCUTT against Mtac2d1 the z-score was inactive: 0.591. With GGACGUGUGCUCCUUCUUATT against Samhd1 the z-score was inactive: -1.78. In the case of “GGUUGUAGGCCAUAAAGAATT against 2700055A20Rik”, the z-score is reported as inactive: -1.08. With “GGUACUGUGGUUUAUUCCUTT against 2610510D14Rik” the z-score was inactive: -0.239. With GUUGUAUUUCUUUGUCCUCTT against Olfr1097 the z-score was inactive: -0.0942. For GCUCUGUGAGCGAAAGUUCTT against Synpo2, the z-score was inactive: 1.13. In the case of CCCUUUCCUAUGCAUUUGCTT against Olfr851, the z-score is reported as inactive: 2.77. With CUUGGUGGAUGAAAGAUUCTT against Tdpoz2 the z-score was inactive: 0.761. With GGAACUGAAGGGCAAUAUCTT against Kifc1 the z-score was inactive: -0.241. In the case of “CCCUGUACACACCUAAAAATT against D10Ertd438e”, the z-score is reported as inactive: 1.39. For GGUGCGAAGGAAAUUGCACTT against Mrps26, the z-score was inactive: 1.09. In the case of GGCUGAUGGAUUCUUAUUGTT against Ostn, the z-score is reported as inactive: 0.4. With GGGAUCAUUAAACUUUUCCTT against Taf11 the z-score was inactive: 0.894. For “GGCAUUGCGUUGGCGAUGUTT against 5330414O08Rik”, the z-score was inactive: -0.309.
